This is an account of results in article PMC11727051.

The chains behind the UniProt entries cited, without tags or fusion partners.
UniProt P18272: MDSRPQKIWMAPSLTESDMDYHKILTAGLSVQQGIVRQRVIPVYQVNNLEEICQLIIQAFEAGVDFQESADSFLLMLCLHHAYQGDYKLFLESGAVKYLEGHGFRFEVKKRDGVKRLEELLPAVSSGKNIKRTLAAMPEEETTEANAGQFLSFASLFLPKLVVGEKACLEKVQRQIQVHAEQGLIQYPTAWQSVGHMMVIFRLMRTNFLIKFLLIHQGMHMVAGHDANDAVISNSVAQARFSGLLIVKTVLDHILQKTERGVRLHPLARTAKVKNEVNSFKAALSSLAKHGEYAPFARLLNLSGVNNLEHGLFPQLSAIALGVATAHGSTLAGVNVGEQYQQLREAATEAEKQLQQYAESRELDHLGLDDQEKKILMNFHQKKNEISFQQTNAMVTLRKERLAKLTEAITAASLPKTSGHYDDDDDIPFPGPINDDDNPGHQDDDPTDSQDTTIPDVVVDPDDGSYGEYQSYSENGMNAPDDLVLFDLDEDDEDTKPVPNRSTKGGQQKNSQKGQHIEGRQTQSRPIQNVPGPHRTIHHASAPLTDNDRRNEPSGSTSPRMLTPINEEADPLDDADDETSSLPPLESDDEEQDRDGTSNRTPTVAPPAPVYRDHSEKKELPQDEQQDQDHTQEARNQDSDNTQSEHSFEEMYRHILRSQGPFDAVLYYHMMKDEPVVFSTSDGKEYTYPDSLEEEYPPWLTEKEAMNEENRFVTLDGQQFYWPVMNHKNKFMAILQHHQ
UniProt Q15172: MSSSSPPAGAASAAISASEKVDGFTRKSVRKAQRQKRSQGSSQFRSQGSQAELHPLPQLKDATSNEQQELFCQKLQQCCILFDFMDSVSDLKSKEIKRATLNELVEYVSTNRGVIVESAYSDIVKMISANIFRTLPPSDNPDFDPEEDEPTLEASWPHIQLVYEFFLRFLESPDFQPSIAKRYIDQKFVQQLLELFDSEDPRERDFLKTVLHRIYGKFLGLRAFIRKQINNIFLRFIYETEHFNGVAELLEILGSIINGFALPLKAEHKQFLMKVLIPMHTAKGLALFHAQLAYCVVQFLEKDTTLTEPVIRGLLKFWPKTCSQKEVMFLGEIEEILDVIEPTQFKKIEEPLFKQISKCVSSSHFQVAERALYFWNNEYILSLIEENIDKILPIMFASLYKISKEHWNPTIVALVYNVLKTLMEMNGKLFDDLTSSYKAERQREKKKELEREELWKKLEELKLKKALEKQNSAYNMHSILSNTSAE
UniProt Q05323: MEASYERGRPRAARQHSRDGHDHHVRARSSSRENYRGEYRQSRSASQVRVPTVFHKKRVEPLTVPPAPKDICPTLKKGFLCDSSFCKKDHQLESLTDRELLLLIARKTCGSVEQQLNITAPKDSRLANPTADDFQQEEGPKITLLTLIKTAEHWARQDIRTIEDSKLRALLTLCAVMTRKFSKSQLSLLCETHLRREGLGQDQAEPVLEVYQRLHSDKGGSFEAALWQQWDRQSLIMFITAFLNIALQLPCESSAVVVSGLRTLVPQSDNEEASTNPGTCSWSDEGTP

The assay deals with Ebola virus nucleoprotein, wild type, flag-tagged (NPwt) (Ebola virus (EBOV)) (UniProt P18272). Kind of assay: co-IP.

No constants are given. Whether binding was seen depends on the method and setting. In cells and extracts the contact can be indirect. Some results given as binding are weak or reduced against the parent protein; the word gives no strength.

On to “PP2A regulatory subunit B56α, myc-tagged (PP2A-B56α-myc) (from UniProt Q15172 1-486)”, for which the binding result is on record as “binds”.

Regarding “Ebola virus VP30 (from UniProt Q05323 1-288)”, the binding result is on record as “binds”.
